# PubChem BioAssay AID602313 (National Center for Advancing Translational Sciences (NCATS), 2012)
# The campaign covered roughly 390,000 compounds. About 760 (0.19%) were called active. The inconclusive results got no clear call from the source; some entries with a clear call stand among them for comparison. Calls come from the whole dose curve; as a rule, active = well fitted inhibition curve with a large enough effect; inconclusive = small, poorly fitted or top-dose-only effect; inactive = flat fitted curve, though single readings scatter. Where the call is inconclusive, the potency comes from a doubtful curve fit.
# Assay: qHTS for Inhibitors of Vif-A3F Interactions: qHTS; note: nearly all actives have a fitted effect of over 65% in size
# Conditions: HeLa A3F-eYFP + Vif (tagged APOBEC3F with the HIV-1 protein that degrades it), YFP fluorescence increase; series mostly up to 46.1 µM
# Method in brief: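 HeLa cells stably expressing A3F-eYFP plus Vif, plated and incubated overnight at 37 deg C, then exposed to compounds overnight at 37 deg C. Blocked degradation read as raised yellow fluorescence (Ex 488/Em 500-530).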
# Potency is the fitted concentration of half-maximal effect.
row,Compound,Potency
1,CCN1/C(=C/c2cc[n+](CCCS(=O)(=O)[O-])c3ccccc23)Sc2ccccc21,"inconclusive: 4.47 µM [inhibitor, partial curve, poor fit]"
2,COc1ccc(-c2[nH]c(-c3ccc(F)cc3)nc2SCC(=O)Nc2ccc(OC)c(OC)c2)cc1,inactive
3,Cc1cccc(NC(=O)COC(=O)C2C3CC4OC(=O)C2C4C3)c1C (centres undefined),"inconclusive: 5.62 µM [inhibitor, partial curve]"
4,COc1ccc(C(=O)Nc2ccc(Cl)c(Cl)c2)c(OC)n1,inactive
5,CCc1ccc(NC(=O)/C(C#N)=C/c2cc3ccc(C)cc3nc2N2CCOCC2)cc1,active: 7.94 µM
6,NC(N)=NS(=O)(=O)c1ccc(NC(=S)NC(=O)c2sc3ccccc3c2Cl)cc1,inactive
7,COC(=O)c1c(NC(=O)c2ccc(S(=O)(=O)N3CCCCC3)cc2)sc2c1CCN(C)C2,"inconclusive: 31.6 µM [inhibitor, single point]"
8,N#C/C(=C\c1ccc(O)c(O)c1)C(=O)N1CCCC1,inactive
9,Cc1cc(C)c2cc3c(N)c(C(=O)Nc4c(C)[nH]c(=O)[nH]c4=O)sc3nc2c1,active: 22.4 µM
10,Cc1ccccc1C(=O)NC(=S)N(Cc1ccccc1)c1ccccn1,"inconclusive: 1.12 µM [inhibitor, full curve, poor fit]"
11,N#Cc1sc2nc(-c3cccs3)cc(-c3ccc(F)cc3)c2c1N,"inconclusive: 12.6 µM [inhibitor, partial curve, poor fit]"
12,Cc1cccc(CSC2=NCCN2C(=O)c2ccc(S(=O)(=O)N(C)C)cc2)c1,"inconclusive: 5.62 µM [inhibitor, single point]"
13,CCn1c(SCC(=O)c2ccccc2)nc2sc3c(c2c1=O)CCN(C)C3,"inconclusive: 15.8 µM [inhibitor, single point]"
14,Cc1cc(-c2ccccc2)nc(N/N=C/c2ccccc2F)n1,active: 22.4 µM
15,CC(C)(C)c1ccc(Oc2ccc(NC(=O)c3cccs3)cn2)cc1,"inconclusive: 20 µM [inhibitor, partial curve, poor fit]"
16,Cc1ccc2[nH]c3c(N4CCc5ccccc5C4)ncnc3c2c1,inactive
17,O=C(c1ccc2c(=O)n(Cc3ccco3)c(=S)[nH]c2c1)N1CCN(c2ccccc2)CC1,inactive
18,C[C@H](NS(=O)(=O)c1ccc2c(c1)OCCCO2)C(=O)N1CCN(Cc2ccc(C#N)cc2)CC1,"inconclusive: 35.5 µM [inhibitor, single point]"
19,CS(=O)(=O)Nc1ccccc1NS(C)(=O)=O,inactive
20,S=C(NCc1ccco1)N1CCC(c2nc3ccccc3o2)CC1,inactive
21,CN1CCN(CCC(=O)N/N=C/C=C2\N(C)c3ccccc3C2(C)C)CC1,"inconclusive: 35.5 µM [inhibitor, single point]"
22,Cc1cccc(NC(=S)NCc2ccccc2)c1C,"inconclusive: 35.5 µM [inhibitor, single point]"
23,COc1cnc(-c2ccccn2)nc1N(C)c1ccccc1,"inconclusive: 22.4 µM [inhibitor, single point]"

row,Compound,Potency
1,O=C(COC(=O)CCC(=O)c1cccs1)NCc1cccs1,"inconclusive: 35.5 µM [inhibitor, single point]"
2,Cc1ccc(O)c(C(=O)c2cc(C#N)c3nc4ccccc4n3c2)c1,"inconclusive: 11.2 µM [inhibitor, partial curve, poor fit]"
3,CCCSc1nc2sc3c(c2c(=O)[nH]1)CCN(Cc1ccccc1)C3,"inconclusive: 15.8 µM [inhibitor, single point]"
4,CC1CCCN(S(=O)(=O)c2ccc(C(=O)Nc3sc4c(c3C(N)=O)CCN(C)C4)cc2)C1 (centres undefined),"inconclusive: 17.8 µM [inhibitor, partial curve, poor fit]"
5,Cc1ccccc1Cn1c(C)nc2ccc([N+](=O)[O-])cc2c1=O,inactive
6,N/C(Cn1cncn1)=N\NC(=O)C(=O)Nc1cccc(C(F)(F)F)c1,"inconclusive: 7.08 µM [inhibitor, full curve, poor fit]"
7,C[C@H](CO)N1C[C@H](C)[C@@H](CN(C)C(=O)Nc2ccc(C(F)(F)F)cc2)Oc2c(NC(=O)NC3CCCCC3)cccc2C1=O,inactive
8,FC(F)(F)Oc1ccc(Nc2nc(N3CCOCC3)nc(N3CCOCC3)n2)cc1,inactive
9,Cc1ccc(S(=O)(=O)N2CCN(c3cnn(C)c(=O)c3Cl)CC2)cc1,"inconclusive: 3.55 µM [inhibitor, partial curve, poor fit]"
10,COCCCNC(=O)Nc1cc(C(=O)NCc2ccc(OC)cc2)ccc1N1CCCC1,inactive
11,CN1CCN(Cc2cc(Cl)c3cccnc3c2OC(=O)c2cccs2)CC1,"inconclusive: 2.82 µM [inhibitor, partial curve, poor fit]"
12,CCOc1ccc2c(c1)c1nc3ccccc3nc1n2C,"inconclusive: 35.5 µM [inhibitor, single point]"
13,COc1cc2cc(CNc3ccc(C)cc3)c(=O)n(CC(=O)Nc3ccc(C(C)C)cc3)c2cc1OC,"inconclusive: 35.5 µM [inhibitor, single point]"
14,Cc1ccc(S(=O)(=O)Oc2ccccc2/C=N/O)cc1,inactive
15,O=C(CCNS(=O)(=O)c1cccc2nsnc12)NCCC1=CCCCC1,inactive
16,CCOc1cc(/C=C(\C#N)C(N)=O)ccc1OS(=O)(=O)c1ccccc1,inactive
17,O=C(Nc1ccc(-c2cn3c(n2)SCC3)cc1)c1ccc2ccccc2n1,"inconclusive: 35.5 µM [inhibitor, single point]"
18,CCCCc1ccc(C(=O)Nc2ccc3nc(N(CC)CC)cc(C)c3c2)cc1,inactive
19,O=c1cc(-c2cccs2)oc2ccc(Cl)cc12,"inconclusive: 17.8 µM [inhibitor, partial curve, poor fit]"
20,O=C(N/N=C/c1cnc(N2CCCCC2)s1)c1ccc(Cl)cc1,inactive
21,CC(C)(C)c1cc(C(=O)CCN2CCOCC2)cc(C(C)(C)C)c1O,inactive
22,Oc1c(Br)cc(Br)cc1CNc1cccc2cccnc12,"inconclusive: 15.8 µM [inhibitor, single point]"
23,Cc1cccc(N=Nc2cnc(N)s2)c1,"inconclusive: 22.4 µM [inhibitor, single point]"

row,Compound,Potency
1,N#C/C(=C\c1cccc(O)c1)C(=O)Nc1ccc2c(c1)OCCO2,"inconclusive: 35.5 µM [inhibitor, single point]"
2,O=C(Nc1cccc(Cl)c1Cl)c1cc(S(=O)(=O)NCCc2ccccc2)ccc1F,"inconclusive: 28.2 µM [inhibitor, single point]"
3,CCOC(=O)C1=C(C)NC(C)=C(C(=O)OCC)C1C(=O)OCC(=O)N1c2ccccc2CC1C (centres undefined),"inconclusive: 35.5 µM [inhibitor, single point]"
4,CCn1cc(CN2CCC(C(=O)Nc3cccc(-c4cscn4)c3)CC2)cn1,"inconclusive: 3.16 µM [inhibitor, single point]"
5,c1ccc(Cc2nnc(N3CCCCC3)c3ccccc23)cc1,inactive
6,NC1=NS(=O)(=O)NC1c1ccc(Br)cc1 (centres undefined),"inconclusive: 12.6 µM [inhibitor, partial curve, poor fit]"
7,CN(C(=O)COC(=O)CNC(=O)C1CCCCC1)c1ccccc1,inactive
8,CCN(CC)CCNC(=O)c1sc2ncn(CC(=O)Nc3ccc(C)c(Cl)c3)c(=O)c2c1C,"inconclusive: 35.5 µM [inhibitor, single point]"
9,Cn1c(OCc2cccnc2)nc2c1c(=O)n(Cc1ccc(Br)cc1)c(=O)n2C,inactive
10,O=C(NCc1ccc2c(c1)CCN2C(=O)c1ccc(F)cc1)c1ccco1,"inconclusive: 15.8 µM [inhibitor, single point]"
11,CC(C)c1ccc(N(C(=O)c2snc(C(N)=O)c2N)C(C(=O)NCC2CCCO2)c2ccc(N(C)C)cc2)cc1 (centres undefined),inactive
12,COc1ccc(OC)c(S(=O)(=O)N2CCC(C(=O)NCCC3=CCCCC3)CC2)c1,"inconclusive: 6.31 µM [inhibitor, single point]"
13,O=C(CSc1nc2c([nH]c3ccccc32)c(=O)n1-c1cccc(Cl)c1)N1CCOCC1,"inconclusive: 35.5 µM [inhibitor, single point]"
14,Cc1cc(S(=O)(=O)N2CCN(c3ccccc3F)CC2)ccc1-n1cnnn1,"inconclusive: 3.55 µM [inhibitor, partial curve, poor fit]"
15,Cc1cccc(NC(=O)c2sc3nc4c(c(-c5cccs5)c3c2N)CN(C)CC4)c1,"inconclusive: 12.6 µM [inhibitor, partial curve, poor fit]"
16,c1ccc2cc3c(NCCN4CCOCC4)ccnc3cc2c1,"inconclusive: 12.6 µM [inhibitor, single point]"
17,CN1CC2=Cc3ccccc3OC23Oc2ccccc2C=C3C1,"inconclusive: 35.5 µM [inhibitor, single point]"
18,Cc1ccc(/C=C2/NC(=O)N(Cc3ccccc3)C2=O)o1,"inconclusive: 35.5 µM [inhibitor, single point]"
19,Cc1coc2c1c(C)cc1oc(=O)c(CC(=O)NCCCCCC(=O)O)c(C)c12,"inconclusive: 35.5 µM [inhibitor, single point]"
20,Cc1ccc(NC(=O)CC2SC(=O)N(c3ccccc3)C2=O)cc1 (centres undefined),"inconclusive: 20 µM [inhibitor, partial curve, poor fit]"
21,CCOc1ccc(/C=N/NC(=O)Cc2csc(Nc3cccc(C(F)(F)F)c3)n2)cc1,"inconclusive: 35.5 µM [inhibitor, single point]"
22,CCCN1C(=O)/C(=C\C=C2/C=CN(CC)c3ccccc32)SC1=S,inactive
23,Cc1[nH]cnc1C(=O)N/N=C/c1c(Cl)cccc1Cl,inactive

# Looked up above.
# Potency with `Cn1c(OCc2cccnc2)nc2c1c(=O)n(Cc1ccc(Br)cc1)c(=O)n2C` is entered as inactive
# Potency with `O=C(Nc1cccc(Cl)c1Cl)c1cc(S(=O)(=O)NCCc2ccccc2)ccc1F` is entered as inconclusive: 28.2 µM [inhibitor, single point]
# Potency with `c1ccc(Cc2nnc(N3CCCCC3)c3ccccc23)cc1` is entered as inactive
# Potency with `CN1CC2=Cc3ccccc3OC23Oc2ccccc2C=C3C1` is entered as inconclusive: 35.5 µM [inhibitor, single point]
